Data as given in PubChem BioAssay AID1159578 (Peter MacCallum Cancer Centre, 2015).
Aim: 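siRNA pools altering how lymphatic endothelial cells close a scratch wound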 (primary screen). Cells: human lymphatic endothelial cells. Reagent: siRNA pool against human genes, 40 nM. Time to read-out: 48 h after transfection. Read-out: 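High-content imaging of dye-stained cells in a scratch assay measures filled wound area and nuclei per well; duplicate means given as ratio to mock and robust z-score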. Scale: migration robust z-score: higher = faster migration into the scratch; nuclei per well: higher = more cells in the well. Active means: 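Pools averaging fewer than 3300 nuclei are never called; remaining pools count as changed when migration robust z lies outside -2 to 2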. Meaning of the calls: active = migration changed; inactive = no migration change, or too few cells.
Here is an unselected part of about 18,000 deposited reagents. Of all reagents, about 1,030 (5.7%) were called active. 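Inactive calls also include pools with fewer than 3300 nuclei, whose migration was not assessed.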 The raw values are shown without normalisation. Entries without a mark were called inactive. Not all columns of the deposit are shown.

| gene knocked down | migration robust z-score | migration class with cell-count check | nuclei per well, duplicate mean |
| --- | --- | --- | --- |
| BCL3 (BCL3 transcription coactivator) | -1.04 | migration z between -2 and 2; enough cells | 5362 |
| LETM1 | 0.62 | migration z between -2 and 2; enough cells | 5368 |
| KCTD11 (potassium channel tetramerization domain containing 11) | -0.78 | migration z between -2 and 2; enough cells | 4611 |
| DNAAF1 (dynein axonemal assembly factor 1) | 0.02 | migration z between -2 and 2; enough cells | 7030 |
| MTURN (maturin, neural progenitor differentiation regulator homolog) | -0.73 | migration z between -2 and 2; enough cells | 5808 |
| RABIF (RAB interacting factor) | -0.44 | migration z between -2 and 2; enough cells | 6518 |
| POLR3D (RNA polymerase III subunit D) | 1.14 | migration z between -2 and 2; enough cells | 5986 |
| RAF1 (Raf-1 proto-oncogene, serine/threonine kinase) | 0 | migration z between -2 and 2; enough cells | 5998 |
| ZDHHC3 (zDHHC palmitoyltransferase 3) | 0.88 | migration z between -2 and 2; enough cells | 5674 |
| ACTG2 (actin gamma 2, smooth muscle) | -0.7 | under 3300 nuclei; migration not judged | 3134 |
| ZBTB12 (zinc finger and BTB domain containing 12) | 0.52 | migration z between -2 and 2; enough cells | 6524 |
| NKD2 (NKD inhibitor of Wnt signaling pathway 2) | 0.83 | migration z between -2 and 2; enough cells | 6120 |
| CDH5 (cadherin 5) | -0.66 | migration z between -2 and 2; enough cells | 4857 |
| MORC3 (MORC family CW-type zinc finger 3) | 1.36 | migration z between -2 and 2; enough cells | 5855 |
| SETD5 (SET domain containing 5) | -0.14 | migration z between -2 and 2; enough cells | 5915 |
| UGT8 (UDP glycosyltransferase 8) | -0.08 | migration z between -2 and 2; enough cells | 7801 |
| TRAF1 (TNF receptor associated factor 1) | 0.85 | migration z between -2 and 2; enough cells | 4740 |
| LRP3 (LDL receptor related protein 3) | -1.71 | migration z between -2 and 2; enough cells | 5660 |
| CD2BP2 (CD2 cytoplasmic tail binding protein 2) | -0.64 | migration z between -2 and 2; enough cells | 4540 |
| TMCC2 (transmembrane and coiled-coil domain family 2) | 0.87 | migration z between -2 and 2; enough cells | 6389 |
| LCP2 (lymphocyte cytosolic protein 2) | 1.04 | migration z between -2 and 2; enough cells | 6037 |
| TNFSF8 (TNF superfamily member 8) | 2.14 (active) | migration z above 2; enough cells | 5978 |
| SDHA (succinate dehydrogenase complex flavoprotein subunit A) | -0.42 | migration z between -2 and 2; enough cells | 6162 |
| CT47A7 (cancer/testis antigen family 47 member A7) | -1.55 | migration z between -2 and 2; enough cells | 5099 |
| CDHR3 (cadherin related family member 3) | 1.13 | migration z between -2 and 2; enough cells | 5406 |
| HAVCR1 (hepatitis A virus cellular receptor 1) | 1.58 | migration z between -2 and 2; enough cells | 5858 |
| DALRD3 (DALR anticodon binding domain containing 3) | -1.1 | migration z between -2 and 2; enough cells | 6108 |
| CKMT1A (creatine kinase, mitochondrial 1A) | 1.22 | migration z between -2 and 2; enough cells | 6030 |
| INTS15 (integrator complex subunit 15) | 1.29 | migration z between -2 and 2; enough cells | 5278 |
| DDX24 (DEAD-box helicase 24) | -0.52 | migration z between -2 and 2; enough cells | 5239 |
| CRLF1 (cytokine receptor like factor 1) | -0.54 | migration z between -2 and 2; enough cells | 5866 |
| NUDT2 (nudix hydrolase 2) | -2.37 (active) | migration z below -2; enough cells | 3784 |
| GALP (galanin like peptide) | -0.97 | migration z between -2 and 2; enough cells | 6424 |
| TXNL4A (thioredoxin like 4A) | 0.3 | migration z between -2 and 2; enough cells | 4903 |
| MAP3K20 (mitogen-activated protein kinase kinase kinase 20) | -0.13 | migration z between -2 and 2; enough cells | 5812 |
| MXI1 (MAX interactor 1, dimerization protein) | 0.83 | migration z between -2 and 2; enough cells | 6254 |
| CLDN1 (claudin 1) | -0.74 | migration z between -2 and 2; enough cells | 3522 |
| MARK4 (microtubule affinity regulating kinase 4) | -0.57 | migration z between -2 and 2; enough cells | 3936 |
| CST5 (cystatin D) | -1.95 | migration z between -2 and 2; enough cells | 5398 |
